Reference: the supplement of paper PMC4604168 (melanoma cell lines)
The other results are listed elsewhere or left out. Many values rest on one well or one pass, so single values are uncertain.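 Cells were imaged in 1,536-well plates, and nuclei stained with an antibody against cleaved PARP were counted against all DNA-stained nuclei to give the apoptosis fraction. Screening doses were chosen to leave most cells alive, and resting and induced cleaved-PARP levels differ strongly between cell lines.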

What follows are compounds tested on LOXIMVI (assay: cleaved PARP positive nuclei fraction relative to DMSO control; melanoma cells; higher = more apoptosis). Conditions: library dose: low library concentration; 72 h.

| Structure (SMILES) | cleaved PARP positive nuclei fraction [%] |
| --- | --- |
| C[C@]1(O)C[C@@H](c2nc(-c3ccc4ccc(-c5ccccc5)nc4c3)c3c(N)nccn32)C1 + C[C@@H]1CCN(C(=O)CC#N)C[C@@H]1N(C)c1ncnc2[nH]ccc12 [CP690550] (first compound 0.4 µM, partner dose 1 µM) | 153 |
| Cn1sc(=O)n(Cc2ccccc2)c1=O + NCC(=O)Nc1ccc(-n2nc(C(F)(F)F)cc2-c2ccc3c(ccc4ccccc43)c2)cc1 [OSU03012] (first compound 0.4 µM, partner dose 1 µM) | 90.7 |
| Cn1sc(=O)n(Cc2ccccc2)c1=O + COc1cc2ncnc(Nc3ccc(Oc4ccccc4)cc3)c2cc1OC [SrcI1] (first compound 0.4 µM, partner dose 2 µM) | 110 |
| Cn1cnc2c(F)c(Nc3ccc(Br)cc3Cl)c(C(=O)NOCCO)cc21 [selumetinib] + Oc1nc(-c2ccc(C(F)(F)F)cc2)nc2c1CSCC2 [XAV939] (first compound 0.015 µM, partner dose 2 µM) | 99.7 |
| CCCCCCCCc1ccc(CCC(N)(CO)CO)cc1 [fingolimod] + O=C(CCCCCCC(=O)Nc1ccccc1)NO [vorinostat] (first compound 2 µM, partner dose 0.08 µM) | 50.9 |
| NC1(c2ccc(-c3nc4ccn5c(=O)[nH]nc5c4cc3-c3ccccc3)cc2)CCC1 + COc1cc2ncnc(Nc3ccc(Oc4ccccc4)cc3)c2cc1OC [SrcI1] (first compound 0.4 µM, partner dose 2 µM) | 94.3 |
| CCCCCCCCc1ccc(CCC(N)(CO)CO)cc1 [fingolimod] + Cc1ccc(NC(=O)c2cccc(N(C)C)c2)cc1NC(=O)c1ccc(O)cc1 [ZM336372] (first compound 2 µM, partner dose 2 µM) | 156 |
| Cn1sc(=O)n(Cc2ccccc2)c1=O + Cn1cc(/C=C2\C(=O)Nc3cccnc32)c2ccccc21 [GW441756] (first compound 0.4 µM, partner dose 0.4 µM) | 86.9 |
| CCN(CC)CCNC(=O)c1c(C)[nH]c(/C=C2\C(=O)Nc3ccc(F)cc32)c1C [sunitinib] + CC1(C)NC(=O)N(c2ccc([N+](=O)[O-])c(C(F)(F)F)c2)C1=O [nilutamide] (first compound 0.4 µM, partner dose 1 µM) | 140 |
| CN(c1ncccc1CNc1nc(Nc2ccc3c(c2)CC(=O)N3)ncc1C(F)(F)F)S(C)(=O)=O + COc1cc2c(Oc3ccc4[nH]c(C)cc4c3F)ncnc2cc1OCCCN1CCCC1 [cediranib] (first compound 0.08 µM, partner dose 0.4 µM) | 56.1 |
| C[C@@H](N)c1ccc(C(=O)Nc2ccnc3[nH]ccc23)cc1 + COc1cc2ncnc(Nc3ccc(Oc4ccccc4)cc3)c2cc1OC [SrcI1] (first compound 0.4 µM, partner dose 2 µM) | 170 |
| CCCCCCCCc1ccc(CCC(N)(CO)CO)cc1 [fingolimod] + Oc1cc(-c2nc(-c3ccccc3)[nH]c2-c2ccncc2)ccc1Cl [L779450] (first compound 2 µM, partner dose 0.2 µM) | 218 |
| C[C@@H](N)c1ccc(C(=O)Nc2ccnc3[nH]ccc23)cc1 + O=S(=O)(c1ccccc1)N(CC(F)(F)F)c1ccc(C(O)(C(F)(F)F)C(F)(F)F)cc1 [T0901317] (first compound 0.4 µM, partner dose 1.4 µM) | 43.1 |
| CN(c1ncccc1CNc1nc(Nc2ccc3c(c2)CC(=O)N3)ncc1C(F)(F)F)S(C)(=O)=O + O=c1cc(-c2cccc3c2Sc2ccccc2S3)oc(N2CCOCC2)c1 [KU55933] (first compound 0.08 µM, partner dose 1 µM) | 75.8 |
| C[C@]1(O)C[C@@H](c2nc(-c3ccc4ccc(-c5ccccc5)nc4c3)c3c(N)nccn32)C1 + CCc1ccc(CCOc2ccc(CC3SC(=O)NC3=O)cc2)nc1 [pioglitazone] (first compound 0.4 µM, partner dose 2 µM) | 44 |
| C[C@]1(O)C[C@@H](c2nc(-c3ccc4ccc(-c5ccccc5)nc4c3)c3c(N)nccn32)C1 + COc1ccc2c(c1)CCC1C2CCC2(C)C(NCCCCCCN3C(=O)C=CC3=O)CCC12 [U73122] (first compound 0.4 µM, partner dose 0.4 µM) | 257 |

Retrieved one by one from above:

| Structure (SMILES) | cleaved PARP positive nuclei fraction [%] |
| --- | --- |
| C[C@]1(O)C[C@@H](c2nc(-c3ccc4ccc(-c5ccccc5)nc4c3)c3c(N)nccn32)C1 + CCc1ccc(CCOc2ccc(CC3SC(=O)NC3=O)cc2)nc1 [pioglitazone] (first compound 0.4 µM, partner dose 2 µM) | 44 |
| C[C@@H](N)c1ccc(C(=O)Nc2ccnc3[nH]ccc23)cc1 + O=S(=O)(c1ccccc1)N(CC(F)(F)F)c1ccc(C(O)(C(F)(F)F)C(F)(F)F)cc1 [T0901317] (first compound 0.4 µM, partner dose 1.4 µM) | 43.1 |

(list continues)

| Structure (SMILES) | cleaved PARP positive nuclei fraction [%] |
| --- | --- |
| C[C@]1(O)C[C@@H](c2nc(-c3ccc4ccc(-c5ccccc5)nc4c3)c3c(N)nccn32)C1 + O=C1NC(=O)/C(=C/c2ccc(-c3ccc(F)cc3O)o2)S1 [AS252424] (first compound 0.4 µM, partner dose 1 µM) | 72.5 |
| CC1(C)CCC(c2ccc(Cl)cc2)=C(CN2CCN(c3ccc(C(=O)NS(=O)(=O)c4ccc(N[C@H](CCN5CCOCC5)CSc5ccccc5)c(S(=O)(=O)C(F)(F)F)c4)cc3)CC2)C1 + O=C(Nc1cccc(Cl)c1)Nc1ncc(CCNc2ncnc3ccsc23)s1 [SNS314] (first compound 0.4 µM, partner dose 0.0008 µM) | 55 |
| C[C@]1(O)C[C@@H](c2nc(-c3ccc4ccc(-c5ccccc5)nc4c3)c3c(N)nccn32)C1 + O=C(Nc1ccccc1)c1cc([N+](=O)[O-])ccc1Cl [GW9662] (first compound 0.4 µM, partner dose 2 µM) | 158 |
| NC1(c2ccc(-c3nc4ccn5c(=O)[nH]nc5c4cc3-c3ccccc3)cc2)CCC1 + Cc1cc(N2CCOCC2)cc2[nH]c(-c3c(NC[C@@H](O)c4cccc(Cl)c4)cc[nH]c3=O)nc12 [BMS536924] (first compound 0.4 µM, partner dose 0.2 µM) | 208 |
| CCN(CC)CCNC(=O)c1c(C)[nH]c(/C=C2\C(=O)Nc3ccc(F)cc32)c1C [sunitinib] + O=c1cc(-c2cccc3c2Sc2ccccc2S3)oc(N2CCOCC2)c1 [KU55933] (first compound 0.4 µM, partner dose 1 µM) | 115 |
| CS(=O)(=O)c1ccc(C(=O)Nc2ccc(Cl)c(-c3ccccn3)c2)c(Cl)c1 [vismodegib] + CN(NC(=O)CC(=O)NN(C)C(=S)c1ccccc1)C(=S)c1ccccc1 [STA4783] (first compound 1 µM, partner dose 0.006 µM) | 222 |
| Cn1cnc2c(F)c(Nc3ccc(Br)cc3Cl)c(C(=O)NOCCO)cc21 [selumetinib] + C=CCNC1=C2C[C@@H](C)C[C@H](OC)[C@H](O)[C@@H](C)/C=C(\C)[C@H](OC(N)=O)[C@@H](OC)/C=C\C=C(/C)C(=O)NC(=CC1=O)C2=O [Tanespimycin] (first compound 0.015 µM, partner dose 0.002 µM) | 115 |
| Cn1cnc2c(F)c(Nc3ccc(Br)cc3Cl)c(C(=O)NOCCO)cc21 [selumetinib] + O=S(=O)(c1ccccc1)N(CC(F)(F)F)c1ccc(C(O)(C(F)(F)F)C(F)(F)F)cc1 [T0901317] (first compound 0.015 µM, partner dose 1.4 µM) | 96.3 |
| NC1(c2ccc(-c3nc4ccn5c(=O)[nH]nc5c4cc3-c3ccccc3)cc2)CCC1 + O=C(O)C(=O)Nc1sc2c(c1C(=O)O)CCNC2 [TCS401] (first compound 0.4 µM, partner dose 1.66667 µM) | 64.4 |
| CC1(C)CCC(c2ccc(Cl)cc2)=C(CN2CCN(c3ccc(C(=O)NS(=O)(=O)c4ccc(N[C@H](CCN5CCOCC5)CSc5ccccc5)c(S(=O)(=O)C(F)(F)F)c4)cc3)CC2)C1 + Nc1nc(F)nc2c1ncn2[C@@H]1O[C@H](CO)[C@@H](O)[C@@H]1O [fludarabine] (first compound 0.4 µM, partner dose 0.2 µM) | 310 |
| Cn1sc(=O)n(Cc2ccccc2)c1=O + C=CCNC1=C2C[C@@H](C)C[C@H](OC)[C@H](O)[C@@H](C)/C=C(\C)[C@H](OC(N)=O)[C@@H](OC)/C=C\C=C(/C)C(=O)NC(=CC1=O)C2=O [Tanespimycin] (first compound 0.4 µM, partner dose 0.002 µM) | 165 |
| Cn1cnc2c(F)c(Nc3ccc(Br)cc3Cl)c(C(=O)NOCCO)cc21 [selumetinib] + COc1ccc2c(c1)CCC1C2CCC2(C)C(NCCCCCCN3C(=O)C=CC3=O)CCC12 [U73122] (first compound 0.015 µM, partner dose 0.4 µM) | 133 |
| CCCCCCCCc1ccc(CCC(N)(CO)CO)cc1 [fingolimod] + CC(C)(C)c1cnc(CSc2cnc(NC(=O)C3CCNCC3)s2)o1 [SNS-032] (first compound 2 µM, partner dose 0.01 µM) | 344 |
| NC(=O)c1ccc(N(C(N)=O)c2c(F)cccc2F)nc1-c1ccc(F)cc1F + COCC[n+]1c2c(n(Cc3cnccn3)c1C)C(=O)c1ccccc1C2=O [YM155] (first compound 0.4 µM, partner dose 0.0004 µM) | 141 |
| NC1(c2ccc(-c3nc4ccn5c(=O)[nH]nc5c4cc3-c3ccccc3)cc2)CCC1 + CO[C@@H]1[C@H](N(C)C(=O)c2ccccc2)C[C@H]2O[C@]1(C)n1c3ccccc3c3c4c(c5c6ccccc6n2c5c31)C(=O)NC4 [Midostaurin] (first compound 0.4 µM, partner dose 0.08 µM) | 41 |
| CC1(C)CCC(c2ccc(Cl)cc2)=C(CN2CCN(c3ccc(C(=O)NS(=O)(=O)c4ccc(N[C@H](CCN5CCOCC5)CSc5ccccc5)c(S(=O)(=O)C(F)(F)F)c4)cc3)CC2)C1 + Cn1nnc2c(C(N)=O)ncn2c1=O [temozolomide] (first compound 0.4 µM, partner dose 2 µM) | 245 |
